Measurements reported in PMC11601937.

The chains behind the UniProt entries cited, without tags or fusion partners. Where a name states a change or a piece, a line headed by the entry shows the natural chain unless it says otherwise.
UniProt P10605: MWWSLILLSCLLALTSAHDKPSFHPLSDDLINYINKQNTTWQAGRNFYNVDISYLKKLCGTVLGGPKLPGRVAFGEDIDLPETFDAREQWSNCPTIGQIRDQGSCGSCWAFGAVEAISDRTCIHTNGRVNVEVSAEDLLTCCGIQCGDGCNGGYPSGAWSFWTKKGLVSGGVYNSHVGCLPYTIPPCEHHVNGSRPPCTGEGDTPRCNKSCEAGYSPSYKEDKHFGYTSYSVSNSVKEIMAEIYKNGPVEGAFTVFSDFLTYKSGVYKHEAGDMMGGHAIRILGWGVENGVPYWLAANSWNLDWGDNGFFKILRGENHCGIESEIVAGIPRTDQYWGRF

Molecular target: T1, stimulator of IFN genes (STING) (mouse (endogenous in BMDCs)) (UniProt Q3TBT3)
T1 sequence: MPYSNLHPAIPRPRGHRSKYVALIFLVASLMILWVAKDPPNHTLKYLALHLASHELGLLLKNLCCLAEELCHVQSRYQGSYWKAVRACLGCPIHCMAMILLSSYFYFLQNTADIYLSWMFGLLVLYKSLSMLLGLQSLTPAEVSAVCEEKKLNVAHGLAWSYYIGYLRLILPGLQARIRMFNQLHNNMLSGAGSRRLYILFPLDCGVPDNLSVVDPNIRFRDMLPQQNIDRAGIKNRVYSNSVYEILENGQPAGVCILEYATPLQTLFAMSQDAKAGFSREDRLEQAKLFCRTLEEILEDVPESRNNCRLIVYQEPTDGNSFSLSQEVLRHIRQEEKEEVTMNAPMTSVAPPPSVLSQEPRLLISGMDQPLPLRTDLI
Assay: co-IP; anti-STING antibody on Dynabeads Protein G; lysates of WT mouse BMDCs stimulated with 2'3'-cGAMP, incubated 2 hours at room temperature; eluate detected by Western blotting

cathepsin B (from UniProt P10605) (enzyme)
binding: binds

No constants are given. Whether binding was seen depends on the method and setting. In cells and extracts the contact can be indirect. A result given as binding can be weak or reduced; the word gives no strength.
